Data on one molecule can be found in patent US4525358A, “2-[4-(Diphenylmethyl)-1-piperazinyl]-acetic acids and their amides” (UCB Pharmaceuticals, Inc., priority 1981, dated 1985).

As a reminder, the LD50 is the dose at which mortality reaches 50%. A low value points to greater toxicity.

Series [1] can be described thus: in vivo. Conditions: rat, po, DL 50, Wistar rat, per os.
Series [2] in a line: in vivo. Conditions: mouse, po, per os.

On to `O=C(O)COCCN1CCN(C(c2ccccc2)c2ccc(Cl)cc2)CC1` (stereo not shown) [J, 2-[2-[4-[(4-chlorophenyl)phenylmethyl]-1-piperazinyl]ethoxy]-acetic acid], for which the median lethal dose (LD50) worked out at 865 mg/kg in series [1] (female); 703 mg/kg in series [1] (male); 752 mg/kg in series [2] (DL 50, female mouse); 600 mg/kg in series [2] (DL 50, male mouse).
